Our source for the binding values is publication PMC12384166.

Amino acid sequences for entries named in this document (tags omitted).
UniProt Q8K1M6: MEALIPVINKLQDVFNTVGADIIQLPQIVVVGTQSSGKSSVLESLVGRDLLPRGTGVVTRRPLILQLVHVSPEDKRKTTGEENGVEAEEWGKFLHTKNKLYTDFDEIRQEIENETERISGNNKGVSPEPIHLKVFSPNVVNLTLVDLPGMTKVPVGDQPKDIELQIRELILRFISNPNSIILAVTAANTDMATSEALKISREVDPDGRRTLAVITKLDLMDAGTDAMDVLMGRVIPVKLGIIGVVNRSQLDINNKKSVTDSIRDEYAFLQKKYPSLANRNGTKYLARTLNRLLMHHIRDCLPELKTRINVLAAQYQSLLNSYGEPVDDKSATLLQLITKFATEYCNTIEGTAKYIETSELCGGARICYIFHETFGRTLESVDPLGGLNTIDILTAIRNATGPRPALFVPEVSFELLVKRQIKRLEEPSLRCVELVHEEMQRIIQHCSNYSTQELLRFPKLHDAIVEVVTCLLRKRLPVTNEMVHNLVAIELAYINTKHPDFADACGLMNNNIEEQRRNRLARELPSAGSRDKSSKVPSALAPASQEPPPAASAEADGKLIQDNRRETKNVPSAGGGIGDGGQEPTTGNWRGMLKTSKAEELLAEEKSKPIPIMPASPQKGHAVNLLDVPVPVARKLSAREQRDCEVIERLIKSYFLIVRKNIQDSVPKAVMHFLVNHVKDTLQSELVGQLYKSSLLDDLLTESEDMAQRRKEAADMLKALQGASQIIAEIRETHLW

The target of this test is dynamin-related protein 1 (DRP1) (mouse (endogenous in mouse heart)) (UniProt Q8K1M6). In words: native gel or EMSA; Cyt, SR and MAM fractions solubilised with 3% digitonin; first dimension 3-12% light blue native PAGE, second dimension 4-12% Bis-Tris SDS-PAGE; blot for DRP1. Background: Mobility shift assays separate free from complexed probe on a gel.

These are yes or no findings as the source states them, for the method shown. Some entries that bind do so weakly or less than the wild type.

For the substance “dynamin-related protein 1 (DRP1) (from UniProt Q8K1M6 1-736)”, the binding entry was “binds”.
